Reference: patent publication US20240327460A1, “NORA INHIBITORS AND METHODS OF USE” (priority 2021, published 2024)
No constants are given. Whether binding was seen depends on the method and setting. Some binding calls cover weakened binding; strength is not graded here. Tags and fused reporters may be left off the sequences shown.

Target: T1, NorA with a C-terminal myc-tag, expressed in E. coli from pTrcHis2C (Staphylococcus aureus) (UniProt Q5HHX4)
T1 sequence: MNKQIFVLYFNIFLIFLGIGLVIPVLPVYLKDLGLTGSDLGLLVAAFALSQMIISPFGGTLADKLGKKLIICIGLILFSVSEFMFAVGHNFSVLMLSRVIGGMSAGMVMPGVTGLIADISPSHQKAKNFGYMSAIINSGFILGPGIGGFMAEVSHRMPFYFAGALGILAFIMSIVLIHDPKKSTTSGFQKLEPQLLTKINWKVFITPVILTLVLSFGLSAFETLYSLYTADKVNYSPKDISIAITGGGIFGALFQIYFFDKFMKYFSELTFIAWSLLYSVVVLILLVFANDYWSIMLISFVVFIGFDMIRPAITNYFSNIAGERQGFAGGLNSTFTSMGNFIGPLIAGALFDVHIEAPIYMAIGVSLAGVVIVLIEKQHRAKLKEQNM
Assay: pull-down of NorA from the membrane fraction of co-expressing E. coli, immunoblot

B1: Fab36 co-expressed in E. coli from pBAD33, C-terminal Avi-tag on the heavy chain (Fab, V domains shown)
VH: EVQLVESGGGLVQPGGSLRLSCAASGFTFSSSSIHWVRQAPGKGLEWVASISSSSGSTSYADSVKGRFTISADTSKNTAYLQMNSLRAEDTAVYYCARYSRYYYYAWRVGGYWGGLDYWGQGTLVTVSS
VL: DIQMTQSPSSLSASVGDRVTITCRASQSVSSAVAWYQQKPGKAPKLLIYSASSLYSGVPSRFSGSRSGTDFTLTISSLQPEDFATYYCQQSSSSLITFGQGTKVEIKR
With B1 the binding was “binds”.
